The record followed here is article PMC9294000.

The chains behind the UniProt entries cited, without tags or fusion partners. Residues count along the entry.
UniProt Q96EP0, residues 350-379: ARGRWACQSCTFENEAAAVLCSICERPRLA
UniProt Q9Y6K9, residues 257-346: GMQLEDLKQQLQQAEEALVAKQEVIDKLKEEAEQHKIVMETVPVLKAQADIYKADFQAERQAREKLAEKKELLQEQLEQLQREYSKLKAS

Results are given in words; binding and its absence hold for the method and conditions named. Some binding calls cover weakened binding; strength is not graded here.

In the experiment the target is human HOIP NZF1 (hHOIP NZF1, aa. 350–379) (human) (UniProt Q96EP0). The experiment in a line: crystal structure; hHOIP NZF1, hNEMO and linear di-ubiquitin purified separately, mixed in an equimolar ratio; sitting drops, 0.1 M Tris-HCl pH 8.5, 22% v/v PEG Smear Broad; 4.2 Å; heteropentameric complex; both purified.

Consider “human NEMO (hNEMO, aa. 257–346) (from UniProt Q9Y6K9 257-346) (domain or fragment)”, for which the binding result is given as “binds weakly”.
